Values from PubChem BioAssay AID504804 (Drosophila RNAi Screening Center, 2011).
In all, the deposit lists about 19,000 reagents; shown is a random part of those with a known target gene and a result. Of all reagents, 47 (0.25%) got an active call. 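Signals are raw, not normalised; exact z-scores behind calls not deposited; actives needed confirmation, so some wells reaching 2 SD are inactive.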 A number with no mark means an inactive call. A plus sign joins genes that one reagent is predicted to hit.

- Screen: 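Knock-downs shielding fly cells from apoptosis caused by DNA damage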 (primary screen)
- Cells: Drosophila Kc cells
- Knock-down reagent: long dsRNA against Drosophila genes, 0.5 µg dsRNA per well
- Time to read-out: 96 h (48 h knock-down, then 48 h drug)
- Conditions: doxorubicin 5 µg/ml for 48 h, added 48 h after dsRNA
- Measurement: 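Viability measured as cellular ATP by luminescence after 48 h knock-down then 48 h doxorubicin at 5 µg/ml; unnormalised plate counts for each replicate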
- Scale: raw ATP luminescence: higher = more viable cells, protection from doxorubicin
- Hit rule: 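Active when both duplicate wells lie at least 2 SD above the plate mean and protection is confirmed by rescreening and independent dsRNAs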

gene knocked down	dsRNA	SD above plate mean	raw ATP luminescence, replicate 1	raw ATP luminescence, replicate 2
CG15404	DRSC00418		25003	24330
Meltrin	DRSC16274		82203	57953
Syx5	DRSC03432		66793	57640
CG31380	DRSC15688		64050	61640
Gapdh1	DRSC07433		40380	89390
Nep4	DRSC15539		39850	32497
Cyt-c-p	DRSC03310		54533	60127
CG17010	DRSC02559		78547	65160
MED25	DRSC14483		16200	18690
mIF2	DRSC14510		60680	45860
mxt	DRSC00551		1.02e5	70050
Hakai	DRSC02031		1.10e5	76193
Kal1	DRSC15983		55023	51307
tws	DRSC12767		68733	70990
tws	DRSC17092		83663	37520
Snmp2	DRSC10228		68690	99243
Snmp2	DRSC10843		63090	77530
Grip163	DRSC10538		78617	74377
Ttc26	DRSC15591		1.70e5	2.02e5
Taf12	DRSC16879		58047	28500
ND-B14.7	DRSC04544		40110	39313
bark	DRSC00635		28333	31100
CG9588	DRSC16504		66470	79800
adp	DRSC06916		61797	61210
Rbsn-5	DRSC03094		1.24e5	60443
Mes2	DRSC11593		47500	29743
Mes2	DRSC11632		21143	19037
CG4462	DRSC15583		49537	42090
CG6126	DRSC15971		47573	58063
CG14050	DRSC18594		55000	69690
Prip	DRSC07044		62327	73790
gom	DRSC04690		63147	50970
CG11655	DRSC19413		2.39e5	2.87e5
Vm26Ac	DRSC02329		21603	29440
AP-1-2beta	DRSC19336		2.64e5	2.32e5
sna	DRSC03613		70397	73673
e(y)2b	DRSC12556		47930	66480
CG7953	DRSC01902		84433	62563
Or59b	DRSC04632		41720	72057

Reformatted: entries from further up.
{"gene knocked down": "adp", "dsRNA": "DRSC06916", "raw ATP luminescence, replicate 1": 61797, "raw ATP luminescence, replicate 2": 61210}
{"gene knocked down": "Rbsn-5", "dsRNA": "DRSC03094", "raw ATP luminescence, replicate 1": 1.24e5, "raw ATP luminescence, replicate 2": 60443}
{"gene knocked down": "Mes2", "dsRNA": "DRSC11593", "raw ATP luminescence, replicate 1": 47500, "raw ATP luminescence, replicate 2": 29743}
{"gene knocked down": "Mes2", "dsRNA": "DRSC11632", "raw ATP luminescence, replicate 1": 21143, "raw ATP luminescence, replicate 2": 19037}
{"gene knocked down": "CG4462", "dsRNA": "DRSC15583", "raw ATP luminescence, replicate 1": 49537, "raw ATP luminescence, replicate 2": 42090}
{"gene knocked down": "CG6126", "dsRNA": "DRSC15971", "raw ATP luminescence, replicate 1": 47573, "raw ATP luminescence, replicate 2": 58063}
{"gene knocked down": "CG14050", "dsRNA": "DRSC18594", "raw ATP luminescence, replicate 1": 55000, "raw ATP luminescence, replicate 2": 69690}
{"gene knocked down": "Prip", "dsRNA": "DRSC07044", "raw ATP luminescence, replicate 1": 62327, "raw ATP luminescence, replicate 2": 73790}

Continued:
gene knocked down	dsRNA	SD above plate mean	raw ATP luminescence, replicate 1	raw ATP luminescence, replicate 2
Jhbp5	DRSC14240		65750	79060
Gr58b	DRSC04140		68053	60827
CG44325	DRSC18423		35530	33480
tin	DRSC17083		31800	33290
CG17187	DRSC15181		54523	51590
CG3358	DRSC04992		70743	59767
Pex1	DRSC11358		24450	20523
RPA1	DRSC16830		44583	26577
Fgop2	DRSC02016		1.04e5	66240
CG2790	DRSC04045		57070	49427
CadN2 + CG42830	DRSC03062		58213	70037
CadN2 + CG42830	DRSC03063		59090	70920
CadN2 + CG42830	DRSC03064		65503	70537
CG14641	DRSC12227		21207	26307
twy	DRSC10562		1.10e5	66117
CG12590	DRSC12216		67537	65573
CG18428	DRSC15326		49630	59030
CG15194 (retired record)	DRSC19642		3.99e5	3.59e5
CG15194 (retired record)	DRSC19777		3.28e5	3.06e5
Desi	DRSC14909		64663	67567
CG3216	DRSC04347		74913	65223
MBD-R2	DRSC14180		46700	37903
Ugt35A1	DRSC16892		44567	24663
CG14693	DRSC14916		63687	69913
CG17321	DRSC02598		54340	47360
mura	DRSC16483		34927	46400
mura	DRSC16484		20817	26830
CG32755	DRSC18397		49730	46760
CG13970	DRSC02311		56067	68503
CG10265	DRSC05986		58403	57910
CG17233	DRSC10259	at least 2 SD above plate mean	47760	41210
gnu	DRSC10497		16250	21523
Cdk4	DRSC07358		52150	55297
CG7276	DRSC10797		55820	32320
CG14054	DRSC17909		46910	58590
Sgs8	DRSC11282		74547	63910
CG2577	DRSC19863		3.39e5	3.46e5
betaTub97EF	DRSC15666		57590	30250
betaTub97EF	DRSC15667		66860	51960
betaTub97EF	DRSC15668		57210	43190
CG16713	DRSC00477		31623	37583
Cyp6t2Psi	DRSC01840		59510	57683
CG8958	DRSC20134		3.59e5	3.38e5
Ca-alpha1T	DRSC17842		53370	46660
Ca-alpha1T	DRSC18103		46420	47210
Ca-alpha1T	DRSC18356		48550	41180
Ca-alpha1T	DRSC18357		42630	44530
